Laboratory results from the supplement of paper PMC8256030.
The other results are listed elsewhere or left out. Single values are uncertain here, since repeats match poorly.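 HEK293T cells were given each compound shortly before transfection with a reporter in which red mCherry is followed by the SARS-CoV-2 frameshift element and then GFP in the −1 frame, so GFP appears only after frameshifting.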

test system: HEK293T; test: percent viability (nuclei count) relative to control; higher = more viable cells; conditions: 10 µM; 24 h

Compound	percent viability
Nc1ccc(C(=O)O)c(O)c1	281%
CCCNC(=O)NS(=O)(=O)c1ccc(Cl)cc1 [chlorpropamide]	106%
Cc1oc(=O)oc1CN1CCN(c2cc3c(cc2F)c(=O)c(C(=O)O)c2n3C(C)S2)CC1 (centres undefined) [prulifloxacin]	198%
CN1C(=O)OC(C)(C)C1=O [trimethadione]	391%
